The results in this text go back to PMC12242688.

By UniProt entry, the sequences of proteins in these tests, tags left out. Where a name states a change or a piece, a line headed by the entry shows the natural chain unless it says otherwise. Chains listed by the source or under a name are the forms on record and can include a tag or linker. Residues count along the entry.
Recombinant His-tagged ApoE3 wild-type (source not stated for the experiment) (P02649, residues 19-317): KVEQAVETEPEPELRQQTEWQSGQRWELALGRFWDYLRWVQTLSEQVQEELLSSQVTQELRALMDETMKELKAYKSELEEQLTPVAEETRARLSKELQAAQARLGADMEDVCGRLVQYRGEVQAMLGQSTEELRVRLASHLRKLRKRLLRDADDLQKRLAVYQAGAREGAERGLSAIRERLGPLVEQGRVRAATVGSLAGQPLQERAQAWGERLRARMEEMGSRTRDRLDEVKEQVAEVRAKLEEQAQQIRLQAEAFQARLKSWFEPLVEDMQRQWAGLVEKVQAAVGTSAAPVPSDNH
Recombinant His-tagged ApoE3 Christchurch variant (source not stated for the experiment) (P02649, form named): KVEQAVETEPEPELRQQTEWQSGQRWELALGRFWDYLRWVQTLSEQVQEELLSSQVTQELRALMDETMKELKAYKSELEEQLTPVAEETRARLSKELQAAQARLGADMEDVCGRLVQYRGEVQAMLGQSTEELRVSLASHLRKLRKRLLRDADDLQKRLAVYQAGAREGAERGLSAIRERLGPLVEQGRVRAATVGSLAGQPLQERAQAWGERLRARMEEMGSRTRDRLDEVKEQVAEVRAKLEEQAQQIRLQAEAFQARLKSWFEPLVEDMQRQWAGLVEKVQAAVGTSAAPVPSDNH

No constants are given. Whether binding was seen depends on the method and setting. Some binding calls cover weakened binding; strength is not graded here.

The target in test [1] is T1, Recombinant human Dkk1 protein (human) (UniProt O94907).
T1 sequence: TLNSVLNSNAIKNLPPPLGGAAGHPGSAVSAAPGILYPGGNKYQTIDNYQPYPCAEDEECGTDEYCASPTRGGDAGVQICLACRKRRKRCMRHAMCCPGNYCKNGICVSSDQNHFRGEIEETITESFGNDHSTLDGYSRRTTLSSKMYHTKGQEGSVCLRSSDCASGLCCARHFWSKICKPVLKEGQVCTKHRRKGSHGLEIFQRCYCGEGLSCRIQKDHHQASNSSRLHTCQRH
The test is described as follows: ITC; ApoE3 WT titrated to Dkk1 (higher concentrations of ApoE3 WT over time); conditions not told in what was shown; both purified.

The target in test [2] is Recombinant His-tagged ApoE3 Christchurch variant (source not stated for the experiment) (human) (UniProt P02649). The test is described as follows: pull-down; recombinant human Dkk1 and His-tagged ApoE3 variants mixed in binding buffer, Ni-NTA magnetic beads overnight at 4°C, washed thrice with 40 mM imidazole, eluted; Western blot; both purified.
Test [3] deals with Recombinant His-tagged ApoE3 wild-type (source not stated for the experiment) (human) (UniProt P02649). The test is described as above.

With “Recombinant His-tagged ApoE3 wild-type (source not stated for the experiment) (from UniProt P02649 19-317)”, the binding result in test [1] was “binds weakly”.

B1: Recombinant human Dkk1 protein (protein, UniProt O94907 32-266)
chain: T1 sequence
Consider B1, for which the binding result in test [2] and in test [3] was “binds weakly” each time.
